No constants are given. Whether binding was seen depends on the method and setting. In cells and extracts the contact can be indirect. Some binding calls cover weakened binding; strength is not graded here.

Sequences of proteins named here, by UniProt entry; tags and fusion partners are left off.
UniProt P26041: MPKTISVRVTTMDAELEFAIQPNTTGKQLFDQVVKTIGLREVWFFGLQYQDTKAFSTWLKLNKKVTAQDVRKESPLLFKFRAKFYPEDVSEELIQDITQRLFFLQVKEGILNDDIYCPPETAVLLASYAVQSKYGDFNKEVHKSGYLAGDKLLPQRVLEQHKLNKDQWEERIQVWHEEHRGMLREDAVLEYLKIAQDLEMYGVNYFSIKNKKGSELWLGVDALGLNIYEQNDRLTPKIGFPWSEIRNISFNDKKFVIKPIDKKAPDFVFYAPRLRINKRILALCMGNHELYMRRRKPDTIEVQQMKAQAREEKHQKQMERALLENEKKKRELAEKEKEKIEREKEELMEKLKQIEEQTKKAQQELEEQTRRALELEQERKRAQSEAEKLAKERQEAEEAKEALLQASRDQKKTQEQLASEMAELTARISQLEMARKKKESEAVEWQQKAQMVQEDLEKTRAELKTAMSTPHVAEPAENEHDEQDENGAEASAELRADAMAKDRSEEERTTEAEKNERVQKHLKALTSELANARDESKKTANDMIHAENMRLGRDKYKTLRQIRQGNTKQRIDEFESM

This test concerns the target moesin (MSN) (mouse (endogenous in EO771)) (UniProt P26041). Put plainly: co-IP; rabbit antibody to MSN on protein A sepharose, incubated overnight with EO771 cell lysate; washed three times with PBS; blot for CD44; rabbit IgG as negative control.

B1: CD44 (receptor, UniProt P15379 23-778)
chain: QIDLNVTCRYAGVFHVEKNGRYSISRTEAADLCQAFNSTLPTMDQMKLALSKGFETCRYGFIEGNVVIPRIHPNAICAANHTGVYILVTSNTSHYDTYCFNASAPPEEDCTSVTDLPNSFDGPVTITIVNRDGTRYSKKGEYRTHQEDIDASNIIDDDVSSGSTIEKSTPEGYILHTYLPTEQPTGDQDDSFFIRSTLATIASTVHSKSHAAAQKQNNWIWSWFGNSQSTTQTQEPTTSATTALMTTPETPPKRQEAQNWFSWLFQPSESKSHLHTTTKMPGTESNTNPTGWEPNEENEDETDTYPSFSGSGIDDDEDFISSTIATTPRVSARTEDNQDWTQWKPNHSNPEVLLQTTTRMADIDRISTSAHGENWTPEPQPPFNNHEYQDEEETPHATSTTPNSTAEAAATQQETWFQNGWQGKNPPTPSEDSHVTEGTTASAHNNHPSQRITTQSQEDVSWTDFFDPISHPMGQGHQTESKDTDSSHSTTLQPTAAPNTHLVEDLNRTGPLSVTTPQSHSQNFSTLHGEPEEDENYPTTSILPSSTKSSAKDARRGGSLPTDTTTSVEGYTFQYPDTMENGTLFPVTPAKTEVFGETEVTLATDSNVNVDGSLPGDRDSSKDSRGSSRTVTHGSELAGHSSANQDSGVTTTSGPMRRPQIPEWLIILASLLALALILAVCIAVNSRRRCGQKKKLVINGGNGTVEDRKPSELNGEASKSQEMVHLVNKEPSETPDQCMTADETRNLQSVDMKIGV
As for B1, the binding entry was “binds”.

The values are drawn from PMC8692912.
